Results taken from PubChem BioAssay AID2673 (National Center for Advancing Translational Sciences (NCATS), 2010).
The inconclusive results got no clear call from the source; some entries with a clear call stand among them for comparison. Where the call is inconclusive, the potency comes from a doubtful curve fit. Calls of active or inactive are those of the source. Calls follow the shape of the dose curve; as a rule, active = well fitted activation curve with a large enough effect; inconclusive = small, poorly fitted or top-dose-only effect; inactive = no such curve, though single readings can be large or run the other way.

Experiment: qHTS Multiplex Assay to Identify Dual Action Probes in a Cell Model of Huntington: Cytoprotection confirmation (ATP)
Source text: NIH Chemical Genomics Center [NCGC]
NIH Molecular Libraries Probe Production centers Network [MLPCN]
Assay Submitter (PI): Wei Zheng
Huntington's disease is a neurodegenerative disorder caused by a trinucleotide repeat expansion in Exon 1 of the Huntingtin gene. The CAG trinucleotide encodes glutamine and polyglutamine expansions cause cell death in selective areas of the brain. Huntington polyglutamine repeats have the tendency to form aggregates which are observable in later stages of the disease. The exact nature of the aggregates, whether toxic, protective, or insignificant, is unclear.
A stable PC12 cell line containing a gene fusion of Exon 1 of the Huntingtin gene linked to GFP under the control of the inducible ecdysone promoter were used as the cell-based model of Huntington Disease for high throughput screening. Exon 1 of the Huntingtin gene contained an expansion of 103 polyglutamines (Q103) which, when expressed, caused cell death and distinct, bright GFP aggregates. The amount of cell death and the size and intensity of GFP aggregates increased over time and induction level. The cell death were quantified with a measurement of ATP content in the cells. A maximal 40-50% of cell death was observed when the Huntington gene was induced in this cell line.
We optimized this assay in a homogeneous 1536 well format. A quantitative high throughput screen (qHTS) was conducted on the PC12 cells which were induced to express the toxic fusion construct. Small molecules which prevented cell death were identified by using a luminescent ATP quantification method (Perkin Elmer's ATPlite).
PC12 cells stably containing a construct with an ecdysone inducible promoter expressing GFP fused to the exon 1 of HTTQ103 (Huntington protein which containing a 103 ployglutamine expansion) were used.
NCGC Assay Protocol Summary:
Sequence, Parameter, Description
1, Reagent, 5 uL 1500 cells/well 1536 TC treated White clear bottom plate
2, Compound, 23 nL Tebufenozide inducer (100 nM final) to all columns
3, Compound, 23 nL 40 uM to 0.5 nM Libraries
5, Reagent, 5 ul ATPLite cell death assay reagent
6, Detector, 4 sec integration with a Viewlux Luminescent
Media consisted of phenol red free DMEM + 5% equine serum (Hyclone # SH30072.03 ), 5% supplemented Bovine Calf Serum (Hyclone # SH30074.03 ), 1x pen/strep, no G418

Row | SMILES | Potency
1 | NC(=O)c1sc2nc3c(c(-c4cccs4)c2c1N)CCCC3 | inconclusive: 3.55 µM [activator, partial curve]
2 | C[C@H]1CC[C@@]2(NC1)O[C@@H]1C[C@H]3[C@@H]4CC=C5C[C@@H](O)CC[C@]5(C)[C@@H]4CC[C@]3(C)[C@@H]1[C@@H]2C | inactive
3 | O=Nc1ccc(Nc2ccccc2)cc1 | inconclusive: 15.8 µM [activator, full curve, poor fit]
4 | C[C@@]1(CO)[C@H](O)CC[C@@]2(C)[C@H]1CC[C@H]1C[C@@H]3C[C@@]12CC[C@]3(O)CO | inactive
5 | c1ccc2c(c1)OC[C@@H](C1=NCCN1)O2 | inconclusive: 22.4 µM [activator, partial curve, poor fit]
